Results as given in patent US20100029551A1, “Treatment Of Inflammatory Lung Conditions With Aerosolized Macrolide Antibiotics” (priority 2008, published 2010).
For some assays here: At least one read-out could not be matched to a standard name with certainty. For some assays here: At least one structure is not confirmed: it was looked up by name or label, or the drawing left a doubt.

Tests used:
[1] = cited from earlier work
[2] = system: neutrophil infiltration in the bronchoalveolar lavage fluid; test: BALF total cell counts and differentials, LPS inflammation model (Example 3); type: in vivo, F344 Rat; conditions: 4 and 24 hours post LPS exposure; 1.5 mg/kg IT

Structure (SMILES)	half-life of hydrolysis in plasma to erythromycylamine [1]	Inflammation (BALF cell counts) versus control [2]
CC[C@H]1OC(=O)[C@H](C)[C@@H](O[C@H]2C[C@@](C)(OC)[C@@H](O)[C@H](C)O2)[C@H](C)[C@@H](O[C@@H]2O[C@H](C)C[C@H](N(C)C)[C@H]2O)[C@](C)(O)C[C@@H](C)[C@@H]2N[C@@H](COCCOC)O[C@H]([C@H]2C)[C@]1(C)O [Dirithromycin]	about 30 minutes	
CCCC1O[C@@H]2C[C@H]3[C@@H]4CCC5=CC(=O)C=C[C@]5(C)[C@H]4[C@@H](O)C[C@]3(C)[C@]2(C(=O)CO)O1 (some centres unmarked) [Budesonide, budesonide]		reduced inflammation
